Data: article doi:10.1101/2020.02.20.957688
No constants are given. Whether binding was seen depends on the method and setting. Binding seen in cells or lysates may run through a third protein. Some results given as binding are weak or reduced against the parent protein; the word gives no strength. Tags and fused reporters may be left off the sequences shown.

The chains behind the UniProt entries cited, without tags or fusion partners. Where a name states a change or a piece, a line headed by the entry shows the natural chain unless it says otherwise. A line that says so, or that is headed by a name, gives the form on record, which may keep a tag or linker.
UniProt Q16665: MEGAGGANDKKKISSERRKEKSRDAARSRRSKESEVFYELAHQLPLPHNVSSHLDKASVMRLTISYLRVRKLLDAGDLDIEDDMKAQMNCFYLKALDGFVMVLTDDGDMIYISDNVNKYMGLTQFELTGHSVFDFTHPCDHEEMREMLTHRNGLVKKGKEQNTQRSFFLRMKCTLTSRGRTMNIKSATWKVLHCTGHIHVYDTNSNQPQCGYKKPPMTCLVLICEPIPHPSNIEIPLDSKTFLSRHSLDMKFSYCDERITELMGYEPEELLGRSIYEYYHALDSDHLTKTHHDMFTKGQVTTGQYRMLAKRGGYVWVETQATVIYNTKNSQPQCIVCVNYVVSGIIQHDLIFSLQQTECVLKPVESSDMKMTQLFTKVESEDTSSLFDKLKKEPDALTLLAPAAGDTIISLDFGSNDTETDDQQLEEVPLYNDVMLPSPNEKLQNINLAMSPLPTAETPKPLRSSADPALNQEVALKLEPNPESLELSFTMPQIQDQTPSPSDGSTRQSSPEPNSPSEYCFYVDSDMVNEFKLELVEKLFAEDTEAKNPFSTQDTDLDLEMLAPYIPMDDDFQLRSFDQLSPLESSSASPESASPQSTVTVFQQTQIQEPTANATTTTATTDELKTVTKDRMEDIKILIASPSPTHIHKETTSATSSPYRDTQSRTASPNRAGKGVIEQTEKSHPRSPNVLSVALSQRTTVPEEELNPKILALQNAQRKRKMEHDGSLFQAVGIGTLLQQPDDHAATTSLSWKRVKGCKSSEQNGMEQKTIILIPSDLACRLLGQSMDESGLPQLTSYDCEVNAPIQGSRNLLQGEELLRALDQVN
GFP-tagged HIF-1α DM^(PP/AA) (Q16665, form named): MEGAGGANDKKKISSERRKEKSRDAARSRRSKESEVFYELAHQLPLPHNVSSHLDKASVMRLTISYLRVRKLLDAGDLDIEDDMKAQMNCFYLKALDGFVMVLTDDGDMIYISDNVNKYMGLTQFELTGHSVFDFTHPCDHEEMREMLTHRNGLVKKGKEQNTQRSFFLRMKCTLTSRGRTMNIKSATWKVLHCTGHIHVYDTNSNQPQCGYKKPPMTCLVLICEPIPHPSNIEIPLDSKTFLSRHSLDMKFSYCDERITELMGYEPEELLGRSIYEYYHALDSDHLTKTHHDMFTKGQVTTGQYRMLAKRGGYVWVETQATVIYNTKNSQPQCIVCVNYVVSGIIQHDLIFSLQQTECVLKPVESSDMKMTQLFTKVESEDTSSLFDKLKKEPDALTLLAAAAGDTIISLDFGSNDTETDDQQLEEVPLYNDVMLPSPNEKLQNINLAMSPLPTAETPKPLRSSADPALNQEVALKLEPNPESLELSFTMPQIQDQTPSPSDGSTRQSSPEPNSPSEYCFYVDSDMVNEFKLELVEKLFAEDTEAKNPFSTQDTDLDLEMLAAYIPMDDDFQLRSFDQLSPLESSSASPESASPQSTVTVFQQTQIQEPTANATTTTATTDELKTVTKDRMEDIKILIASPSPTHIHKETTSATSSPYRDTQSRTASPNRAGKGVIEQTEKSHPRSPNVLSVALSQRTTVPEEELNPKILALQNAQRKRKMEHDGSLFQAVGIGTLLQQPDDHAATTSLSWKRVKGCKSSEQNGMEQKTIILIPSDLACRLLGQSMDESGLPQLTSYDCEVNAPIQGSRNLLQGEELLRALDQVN

Target: GFP-tagged HIF-1α DM^(PP/AA) (UniProt Q16665)
Assay: co-IP

B1: HA-USP29 (enzyme, UniProt Q9HBJ7 1-922)
chain: MISLKVCGFIQIWSQKTGMTKLKEALIETVQRQKEIKLVVTFKSGKFIRIFQLSNNIRSVVLRHCKKRQSHLRLTLKNNVFLFIDKLSYRDAKQLNMFLDIIHQNKSQQPMKSDDDWSVFESRNMLKEIDKTSFYSICNKPSYQKMPLFMSKSPTHVKKGILENQGGKGQNTLSSDVQTNEDILKEDNPVPNKKYKTDSLKYIQSNRKNPSSLEDLEKDRDLKLGPSFNTNCNGNPNLDETVLATQTLNAKNGLTSPLEPEHSQGDPRCNKAQVPLDSHSQQLQQGFPNLGNTCYMNAVLQSLFAIPSFADDLLTQGVPWEYIPFEALIMTLTQLLALKDFCSTKIKRELLGNVKKVISAVAEIFSGNMQNDAHEFLGQCLDQLKEDMEKLNATLNTGKECGDENSSPQMHVGSAATKVFVCPVVANFEFELQLSLICKACGHAVLKVEPNNYLSINLHQETKPLPLSIQNSLDLFFKEEELEYNCQMCKQKSCVARHTFSRLSRVLIIHLKRYSFNNAWLLVKNNEQVYIPKSLSLSSYCNESTKPPLPLSSSAPVGKCEVLEVSQEMISEINSPLTPSMKLTSESSDSLVLPVEPDKNADLQRFQRDCGDASQEQHQRDLENGSALESELVHFRDRAIGEKELPVADSLMDQGDISLPVMYEDGGKLISSPDTRLVEVHLQEVPQHPELQKYEKTNTFVEFNFDSVTESTNGFYDCKENRIPEGSQGMAEQLQQCIEESIIDEFLQQAPPPGVRKLDAQEHTEETLNQSTELRLQKADLNHLGALGSDNPGNKNILDAENTRGEAKELTRNVKMGDPLQAYRLISVVSHIGSSPNSGHYISDVYDFQKQAWFTYNDLCVSEISETKMQEARLHSGYIFFYMHNGIFEELLRKAENSRLPSTQAGVIPQGEYEGDSLYRPA
  binding: binds
